According to publication PMC11609576:
These are yes or no findings as the source states them, for the method shown. In cells and extracts the contact can be indirect. Some binding calls cover weakened binding; strength is not graded here.

Biological target: T1, Lectin, mannose-binding 2 (LMAN2) (human (endogenous in BC cells)) (UniProt Q12907)
T1 sequence: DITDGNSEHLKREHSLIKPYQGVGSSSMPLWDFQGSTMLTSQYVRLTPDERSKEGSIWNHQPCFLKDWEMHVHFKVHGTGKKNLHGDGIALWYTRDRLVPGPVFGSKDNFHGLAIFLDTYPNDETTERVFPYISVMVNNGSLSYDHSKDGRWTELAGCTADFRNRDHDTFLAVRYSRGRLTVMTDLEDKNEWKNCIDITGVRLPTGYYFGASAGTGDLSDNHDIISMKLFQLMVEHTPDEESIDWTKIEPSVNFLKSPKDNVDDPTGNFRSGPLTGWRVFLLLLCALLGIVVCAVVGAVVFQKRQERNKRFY
Experiment: co-IP; BC cells lysed in NP-40 lysis buffer; supernatant incubated with anti-LMAN2 at 4°C overnight, protein A/G agarose 6 h at 4°C; Western blot; anti-IgG as negative control

binding: binds
Substance: MAPK9 (from UniProt P45984 1-424)
